Among the data in PubChem BioAssay (NCATS) are AC50 values, retold here.

The list shows a part of the results. Further columns of the screen follow, without active or inactive calls. Most of these compounds were active or inconclusive in the main read-out, so they are no random draw. Words in brackets tell the shape of the fitted curve; partial curves, single points and poor fits give uncertain potencies.

One may read the AC50 as the concentration at which the activity in the assay is half-maximal.

The first assay can be described thus: Validation of Assay for Modulators of Lamin A Splicing (AID 1459). The conditions noted are these: Lamin A splicing dual RFP/GFP fluorescence reporter, ratio; measured here: GFP channel. An excerpt:
Hutchinson-Gilford Progeria Syndrome (HGPS) is a pediatric premature aging disease caused by a spontaneous mutation in the lamin A/C (LMNA) gene. The mutation activates a cryptic splice site in the LMNA pre-mRNA which results in production of a pre-lamin A protein that cannot be processed properly. The mutant protein accumulates in the nucleus and negatively affects numerous cellular functions. Correction of the splicing defect in HGPS patient cells using a targeted oligonucleotide (exo11) leads to reversal of the cellular disease phenotypes. To identify small molecule modulators of aberrant LMNA splicing, a homogenous assay was constructed in HeLa cells that used a GFP containing minigene to report on correction of aberrant splicing in lamin A and a RFP (DsRed2) to report on cell viability, uniformity and nonspecific effects on the assay signal. This assay was adapted to laser-scanning microplate cytometry (Acumen, TTP Labtech) where miniaturization of the assay to a 1,536-well plate format was possible.
Bowen, W. P.; Wylie, P. G. Application of Laser-Scanning Fluorescence Microplate Cytometry in High Content Screening. Assay Drug Dev Technol 2006;4:209-221.
Scaffidi P, Misteli T. Reversal of the cellular phenotype in the premature aging disease Hutchinson-Gilford progeria syndrome. Nat. Med. 2005;11:440-445.
NCGC Assay Protocol Summary:
Reagents/Controls: Stable clones expressing DsRed2 and lamin A-EGFP were generated by Cell and Molecular Technologies in S3 HeLa cells.
HeLa cells were prepared for the assay when they were 70-90% confluent. The cells were counted and resuspended in Opti-MEM I (no phenol red; Gibco), 2% FBS, 1% penicillin/ streptomycin (Gibco) at concentration of 120 cells/uL concentration. The suspension was passed through a Falcon basket filter with pore size 40um (Beckton Dickson).
Control titrations: column […] 1536-well plate contained a sixteen point titration (1:2 dilutions) in duplicate of ancitabine (Sigma: A8598) beginning at 40 uM final concentration. Column 2 contained a sixteen point titration (1:2 dilutions) of cycloheximide beginning at 1.4 mM final concentration. Column 3 contained ancitabine at 40 uM and column 4 contained was the vehicle control (0.5% DMSO final concentration).
5 uL of HeLa cells were plated in Aurora LoBase black clear bottom (cyclic-olefin polymer) 1536-well plates at a final density of 600 cells/well. Controls and library compounds were added with a 1536-well pin array using the Kalypsys pin-tool. The plates were then incubated for 48 hrs in a cell-culture incubator (37 °C; 5% CO2, 98% humidity). Following incubation the plates were read on the Acumen Explorer using the 488 nm laser. Data was collected on objects between 10 and 100 um in size. Cell objects were defined by a 15 um width x 10 um depth filter. The ratio of the total object intensity in PMT1 (500-530 nm emission; GFP) over PMT3 (575-640 nm emission; RFP) was calculated for analysis.
Keywords: NIH Roadmap, MLSCN, MLI, MLSMR, qHTS, NCGC, lamin A, Progeria, RNA splicing.
As for `Cc1c2ccncc2c(C)c2c1[nH]c1ccccc12`, the AC50 is 11.2 µM [falling, partial curve].

On to `COc1cc2c(c(OC)c1OC)-c1ccc(OC)c(=O)cc1[C@@H](NC(C)=O)CC2`, for which the AC50 is 0.0501 µM [falling, full curve].

As to `NC(=O)c1ccc(OCC(O)CN2CC=C(c3ccc(F)cc3)CC2)cc1` (stereo unspecified), the AC50 was 5.62 µM [falling, single point].

Take `c1ccc2c(c1)[I+]c1ccccc1-2`: the AC50 is 5.62 µM [falling, partial curve].

For `CN1C[C@H](CNC(=O)OCc2ccccc2)C[C@@H]2c3cccc4c3c(cn4C)C[C@H]21`, the AC50 was 7.94 µM [falling, partial curve].

Turning to `CCN(CCCl)Cc1ccccc1Br`, the AC50 is 12.6 µM [falling, partial curve, poor fit].

For the compound `CCCCCCC(C)(C)c1ccc([C@@H]2C[C@H](O)CC[C@H]2CCCO)c(O)c1`, the AC50 is 14.1 µM [rising, single point].

For the compound `COc1cc(OC)c(/C=C2/C(=O)Nc3ccccc32)c(OC)c1`, the AC50 is 22.4 µM [falling, single point].

For the compound `C[N+]1(C)C2CCC1CC(OC(=O)c1c[nH]c3ccccc13)C2` (stereo unspecified), the AC50 is 35.5 µM [falling, single point].

Consider `C[C@]12CC[C@H](OS(=O)(=O)O)CC1=CCC1C2CC[C@]2(C)C(=O)CC[C@@H]12` (stereo partly specified), for which the half-maximal activity concentration (AC50) was 25.1 µM [falling, single point].

`COc1ccc2c(c1)CCC1C2CC[C@@]2(C)C1CC[C@@H]2NCCCCCCN1C(=O)C=CC1=O` (stereo partly specified): the AC50 is 22.4 µM [falling, single point].

Take `C=C(C)[C@H]1Cc2c(ccc3c2O[C@@H]2COc4cc(OC)c(OC)cc4[C@@H]2C3=O)O1`: the concentration at half-maximal activity (AC50) is 5.62 µM [falling, single point].

Regarding `C/C(O)=C(\C#N)C(=O)Nc1cc(Br)ccc1Br`, the AC50 is 22.4 µM [falling, partial curve].

For `COc1cc([C@@H]2c3cc4c(cc3[C@H](O)C3COC(=O)[C@@H]32)OCO4)cc(OC)c1OC` (stereo partly specified), the AC50 was 0.0447 µM [falling, full curve].

Regarding `COC[C@H]1OC(=O)c2coc3c2[C@@]1(C)C1=C(C3=O)C2CCC(=O)[C@@]2(C)C[C@H]1OC(C)=O` (stereo partly specified), the AC50 was 15.8 µM [falling, single point].

For `CNCCc1ccc(O)c(O)c1`, the AC50 was 35.5 µM [falling, single point].

On to `S=C(S)N1CCCC1`, for which the AC50 was 0.631 µM [falling, full curve].

Consider `c1ccc2c(c1)OCC(C1=NCCN1)O2` (stereo unspecified), for which the half-maximal activity concentration (AC50) was 15.8 µM [falling, single point].

On to `CN1CCc2cc(O)cc3c2C1Cc1ccc(O)c(O)c1-3` (stereo unspecified), for which the AC50 is 22.4 µM [falling, single point].

Consider `C[N+]1(C)CCC(OC(=O)C(c2ccccc2)c2ccccc2)CC1`, for which the AC50 is 35.5 µM [falling, single point].

As for `CNc1ccc2oc(C[C@H]3O[C@@]4(CC[C@H]3C)O[C@H]([C@H](C)C(=O)c3ccc[nH]3)[C@H](C)C[C@H]4C)nc2c1C(=O)O`, the AC50 is 3.55 µM [falling, full curve].

Still in this assay, the particulars now being: Lamin A splicing dual RFP/GFP fluorescence reporter, ratio; measured here: RFP channel.
Regarding `Cc1c2ccncc2c(C)c2c1[nH]c1ccccc12`, the AC50 is 12.6 µM [falling, partial curve].

`COc1cc2c(c(OC)c1OC)-c1ccc(OC)c(=O)cc1[C@@H](NC(C)=O)CC2`: the AC50 is 0.0708 µM [falling, full curve].

Consider `NC(=O)c1ccc(OCC(O)CN2CC=C(c3ccc(F)cc3)CC2)cc1` (stereo unspecified), for which the AC50 was 5.62 µM [falling, single point].

Regarding `c1ccc2c(c1)[I+]c1ccccc1-2`, the AC50 is 7.08 µM [falling, full curve].

Regarding `CN1C[C@H](CNC(=O)OCc2ccccc2)C[C@@H]2c3cccc4c3c(cn4C)C[C@H]21`, the half-maximal activity concentration (AC50) was 7.94 µM [falling, partial curve].

For `CCN(CCCl)Cc1ccccc1Br`, the AC50 is 14.1 µM [falling, partial curve].

For `CCCCCCC(C)(C)c1ccc([C@@H]2C[C@H](O)CC[C@H]2CCCO)c(O)c1`, the AC50 was 14.1 µM [rising, single point].

Consider `COc1cc(OC)c(/C=C2/C(=O)Nc3ccccc32)c(OC)c1`, for which the AC50 was 22.4 µM [falling, single point].

Turning to `C[N+]1(C)C2CCC1CC(OC(=O)c1c[nH]c3ccccc13)C2` (stereo unspecified), the concentration at half-maximal activity (AC50) is 25.1 µM [falling, single point].

Take `C[C@]12CC[C@H](OS(=O)(=O)O)CC1=CCC1C2CC[C@]2(C)C(=O)CC[C@@H]12` (stereo partly specified): the AC50 is 25.1 µM [falling, single point].

As to `COc1ccc2c(c1)CCC1C2CC[C@@]2(C)C1CC[C@@H]2NCCCCCCN1C(=O)C=CC1=O` (stereo partly specified), the AC50 was 10 µM [falling, partial curve].

On to `C=C(C)[C@H]1Cc2c(ccc3c2O[C@@H]2COc4cc(OC)c(OC)cc4[C@@H]2C3=O)O1`, for which the AC50 is 2.82 µM [falling, full curve].

Regarding `C/C(O)=C(\C#N)C(=O)Nc1cc(Br)ccc1Br`, the AC50 is 22.4 µM [falling, partial curve].

For the compound `COc1cc([C@@H]2c3cc4c(cc3[C@H](O)C3COC(=O)[C@@H]32)OCO4)cc(OC)c1OC` (stereo partly specified), the AC50 was 0.0501 µM [falling, full curve].

Regarding `COC[C@H]1OC(=O)c2coc3c2[C@@]1(C)C1=C(C3=O)C2CCC(=O)[C@@]2(C)C[C@H]1OC(C)=O` (stereo partly specified), the concentration at half-maximal activity (AC50) is 35.5 µM [falling, single point].

As for `CNCCc1ccc(O)c(O)c1`, the AC50 is 22.4 µM [falling, partial curve, poor fit].

Regarding `S=C(S)N1CCCC1`, the AC50 is 0.501 µM [falling, full curve, poor fit].

In the case of `CN1CCc2cc(O)cc3c2C1Cc1ccc(O)c(O)c1-3` (stereo unspecified), the AC50 was 25.1 µM [falling, partial curve].

As to `C[N+]1(C)CCC(OC(=O)C(c2ccccc2)c2ccccc2)CC1`, the AC50 is 35.5 µM [falling, single point].

Turning to `CNc1ccc2oc(C[C@H]3O[C@@]4(CC[C@H]3C)O[C@H]([C@H](C)C(=O)c3ccc[nH]3)[C@H](C)C[C@H]4C)nc2c1C(=O)O`, the AC50 was 2.82 µM [falling, full curve].
